We go through 8 substances from patent publication US20140256639A1, “PEPTOID NEUTRALIZING AGENTS” (The Regents of the University of California, priority 2013, published 2014).

The nature of this data set: Isothermal titration calorimetry (ITC) of peptoid binding to heparin. The note with it: for N: Table 4, stoichiometry; for N (stoichiometry): Table 3, obtained by fitting the titration curves. (In ITC the heat of successive injections is recorded.)

Take “H-[N(Orn)-N(All)-N(Spe)]3-NH2 [s9merAll]”: the N is on record as 19.3 ± 2.4^.

For H-[N(Lys)-N(Bu)-N(Spe)]3-NH2 [s9merLys], where the note is “Table 4, calculated from binding constant and ΔH”, the TΔS is 10,000 ± 54^ cal/mole.

With H-[N(Orn)-N(Bu)-N(Spe)]4-NH2 [s12mer], the “N (stoichiometry)” value came out at 19.48 and the N is 19.5 ± 2.7^.

In the case of H-[N(Orn)-N(Bu)-N(Spe)]4-NH2 [s12merG], the N is listed as 19.7 ± 5.7^.

As for H-[N(Orn)-N(Bu)-N(Rpe)]4-NH2 [r12mer], the “N (stoichiometry)” value came out at 16.26.

Consider H-[N(Cad)-N(Bu)-N(Spe)]3-NH2 [s9merCad], for which the N was 21.9 ± 0.3^.

Regarding “H-[N(Orn)-N(Orn)-N(Spe)]4-NH2 [s9merOrnOrn]”, the “enthalpy of reaction (sign)” value (in words) is given as “exothermic”.

For the substance “H-[N(Cad)G-N(Bu)-N(Spe)]3-NH2 [s9merCadG]”, for the setting “Table 4”, the ΔH is −283.5 ± 27^ cal/mole.
